Results are given in words; binding and its absence hold for the method and conditions named. Binding seen in cells or lysates may run through a third protein. Some entries that bind do so weakly or less than the wild type.
Target: Transcription factor 4 (TCF4) (mouse (endogenous in E12.5 Nr5a1-GFP gonadal cells)) (UniProt Q60722)
Experiment: co-IP; endogenous TCF4 immunoprecipitated from sorted XY Nr5a1-GFP cells (2 million cells / IP), eluate blotted for MED8; IgG IP in parallel

Amino acid sequences for entries named in this document (tags omitted).
UniProt Q60722: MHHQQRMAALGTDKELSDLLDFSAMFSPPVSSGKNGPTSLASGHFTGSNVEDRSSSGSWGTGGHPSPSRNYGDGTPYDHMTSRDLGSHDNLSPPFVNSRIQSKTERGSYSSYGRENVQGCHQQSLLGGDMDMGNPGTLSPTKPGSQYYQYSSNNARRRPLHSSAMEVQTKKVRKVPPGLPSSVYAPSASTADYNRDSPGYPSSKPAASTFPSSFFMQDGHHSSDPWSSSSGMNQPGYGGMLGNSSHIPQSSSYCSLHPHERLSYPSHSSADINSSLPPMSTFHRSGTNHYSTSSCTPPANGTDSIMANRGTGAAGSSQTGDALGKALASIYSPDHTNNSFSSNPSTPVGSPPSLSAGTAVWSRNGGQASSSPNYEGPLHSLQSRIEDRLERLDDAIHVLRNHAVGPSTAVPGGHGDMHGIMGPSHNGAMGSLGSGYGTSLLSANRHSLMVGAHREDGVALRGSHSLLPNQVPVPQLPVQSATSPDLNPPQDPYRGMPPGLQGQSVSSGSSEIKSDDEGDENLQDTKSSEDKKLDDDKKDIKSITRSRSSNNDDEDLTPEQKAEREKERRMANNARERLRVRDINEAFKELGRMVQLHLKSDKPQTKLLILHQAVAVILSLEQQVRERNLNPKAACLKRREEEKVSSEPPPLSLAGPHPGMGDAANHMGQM

binding: binds
B1: Mediator 8 (protein, UniProt Q9D7W5 1-268)
chain: MQREEKQLEASLDALLNQVADLKNSLGSFIYKLENEYDRLTWPSVLDSFALLSGQLNTLNKVLKHEKTPLFRNQVIIPLVLSPDRDEDLMRQTEGRVPVFSHEVVPDHLRTKPDPEVEEQEKQLTTDAARIGADAAQKQIQSLNKMCSNLLEKISKEERESESGGLRPNKQTFNPGDTNALVAAVAFGKGLSNWRPSGSSGPGQPGQPGAGTILAGASGLPQVQMPGAPNQQQPMLSGVQMAQAGQPGKMPSGIKTNIKSASMHPYQR

Reference: paper doi:10.1101/2025.02.28.640455
